Assay results: patent publication US20220363870A1, “Stain Resistant Additive” (Arxada AG, priority 2019, published 2022)

Assay: Household Stain Resistance Test (ASTM Method D4828)
Set-up: key: (−) for negative; (=) for same; (+) for positive result

## zinc di(ethyl 4,4,4-trifluoroacetoacetate) dihydrate [Additive]
Ball-pen, Commercial Paint 1 with 0.05% Additive, relative to same commercial paint without additive
  Household stain resistance (degree of stain removal): =
Ball-pen, Commercial Paint 1 with 0.5% Additive, relative to same commercial paint without additive
  Household stain resistance (degree of stain removal): =
Ball-pen, Commercial Paint 2 with 0.05% Additive, relative to same commercial paint without additive
  Household stain resistance (degree of stain removal): =
Ball-pen, Commercial Paint 2 with 0.5% Additive, relative to same commercial paint without additive
  Household stain resistance (degree of stain removal): +
Ball-pen, paint of Table 1 with 0.05% by weight additive, relative to same paint without additive
  Household stain resistance (degree of stain removal): =
Ball-pen, paint of Table 1 with 0.5% by weight additive, relative to same paint without additive
  Household stain resistance (degree of stain removal): =
Coffee, Commercial Paint 1 with 0.05% Additive, relative to same commercial paint without additive
  Household stain resistance (degree of stain removal): =
Coffee, Commercial Paint 1 with 0.5% Additive, relative to same commercial paint without additive
  Household stain resistance (degree of stain removal): +
Coffee, Commercial Paint 2 with 0.05% Additive, relative to same commercial paint without additive
  Household stain resistance (degree of stain removal): =
Coffee, Commercial Paint 2 with 0.5% Additive, relative to same commercial paint without additive
  Household stain resistance (degree of stain removal): +
Coffee, paint of Table 1 with 0.05% by weight additive, relative to same paint without additive
  Household stain resistance (degree of stain removal): =
Coffee, paint of Table 1 with 0.5% by weight additive, relative to same paint without additive
  Household stain resistance (degree of stain removal): SI −
Crayon, Commercial Paint 1 with 0.05% Additive, relative to same commercial paint without additive
  Household stain resistance (degree of stain removal): =
Crayon, Commercial Paint 1 with 0.5% Additive, relative to same commercial paint without additive
  Household stain resistance (degree of stain removal): =
Crayon, Commercial Paint 2 with 0.05% Additive, relative to same commercial paint without additive
  Household stain resistance (degree of stain removal): =
Crayon, Commercial Paint 2 with 0.5% Additive, relative to same commercial paint without additive
  Household stain resistance (degree of stain removal): =
Crayon, paint of Table 1 with 0.05% by weight additive, relative to same paint without additive
  Household stain resistance (degree of stain removal): =
Crayon, paint of Table 1 with 0.5% by weight additive, relative to same paint without additive
  Household stain resistance (degree of stain removal): =
Ketchup, Commercial Paint 1 with 0.05% Additive, relative to same commercial paint without additive
  Household stain resistance (degree of stain removal): =
Ketchup, Commercial Paint 1 with 0.5% Additive, relative to same commercial paint without additive
  Household stain resistance (degree of stain removal): =
Ketchup, Commercial Paint 2 with 0.05% Additive, relative to same commercial paint without additive
  Household stain resistance (degree of stain removal): =
Ketchup, Commercial Paint 2 with 0.5% Additive, relative to same commercial paint without additive
  Household stain resistance (degree of stain removal): =
Ketchup, paint of Table 1 with 0.05% by weight additive, relative to same paint without additive
  Household stain resistance (degree of stain removal): =
Ketchup, paint of Table 1 with 0.5% by weight additive, relative to same paint without additive
  Household stain resistance (degree of stain removal): =
Lipstick, Commercial Paint 1 with 0.05% Additive, relative to same commercial paint without additive
  Household stain resistance (degree of stain removal): =
Lipstick, Commercial Paint 1 with 0.5% Additive, relative to same commercial paint without additive
  Household stain resistance (degree of stain removal): +
Lipstick, Commercial Paint 2 with 0.05% Additive, relative to same commercial paint without additive
  Household stain resistance (degree of stain removal): =
Lipstick, Commercial Paint 2 with 0.5% Additive, relative to same commercial paint without additive
  Household stain resistance (degree of stain removal): +
Lipstick, paint of Table 1 with 0.05% by weight additive, relative to same paint without additive
  Household stain resistance (degree of stain removal): =
Lipstick, paint of Table 1 with 0.5% by weight additive, relative to same paint without additive
  Household stain resistance (degree of stain removal): +
Marker, Commercial Paint 1 with 0.05% Additive, relative to same commercial paint without additive
  Household stain resistance (degree of stain removal): =
Marker, Commercial Paint 1 with 0.5% Additive, relative to same commercial paint without additive
  Household stain resistance (degree of stain removal): =
Marker, Commercial Paint 2 with 0.05% Additive, relative to same commercial paint without additive
  Household stain resistance (degree of stain removal): =
Marker, Commercial Paint 2 with 0.5% Additive, relative to same commercial paint without additive
  Household stain resistance (degree of stain removal): =
Marker, paint of Table 1 with 0.05% by weight additive, relative to same paint without additive
  Household stain resistance (degree of stain removal): =
Marker, paint of Table 1 with 0.5% by weight additive, relative to same paint without additive
  Household stain resistance (degree of stain removal): +
Mustard, Commercial Paint 1 with 0.05% Additive, relative to same commercial paint without additive
  Household stain resistance (degree of stain removal): =
Mustard, Commercial Paint 1 with 0.5% Additive, relative to same commercial paint without additive
  Household stain resistance (degree of stain removal): =
Mustard, Commercial Paint 2 with 0.05% Additive, relative to same commercial paint without additive
  Household stain resistance (degree of stain removal): =
Mustard, Commercial Paint 2 with 0.5% Additive, relative to same commercial paint without additive
  Household stain resistance (degree of stain removal): =
Mustard, paint of Table 1 with 0.05% by weight additive, relative to same paint without additive
  Household stain resistance (degree of stain removal): −
Mustard, paint of Table 1 with 0.5% by weight additive, relative to same paint without additive
  Household stain resistance (degree of stain removal): SI +
Pencil, paint of Table 1 with 0.05% by weight additive, relative to same paint without additive
  Household stain resistance (degree of stain removal): =
Pencil, paint of Table 1 with 0.5% by weight additive, relative to same paint without additive
  Household stain resistance (degree of stain removal): +
Red wine, Commercial Paint 1 with 0.05% Additive, relative to same commercial paint without additive
  Household stain resistance (degree of stain removal): SI +
Red wine, Commercial Paint 1 with 0.5% Additive, relative to same commercial paint without additive
  Household stain resistance (degree of stain removal): =
Red wine, Commercial Paint 2 with 0.05% Additive, relative to same commercial paint without additive
  Household stain resistance (degree of stain removal): =
Red wine, Commercial Paint 2 with 0.5% Additive, relative to same commercial paint without additive
  Household stain resistance (degree of stain removal): =
Red wine, paint of Table 1 with 0.05% by weight additive, relative to same paint without additive
  Household stain resistance (degree of stain removal): SI −
Red wine, paint of Table 1 with 0.5% by weight additive, relative to same paint without additive
  Household stain resistance (degree of stain removal): =
